Test results: patent publication US20220112291A1
Residue numbers refer to the chain shown, from its start. These are yes or no findings as the source states them, for the method shown. Some results given as binding are weak or reduced against the parent protein; the word gives no strength. Each block holds one binder with its values, some of them ahead of it.

Assays:
[1] = target: human single-chain CD1a-β2M recombinant protein (Human B2M-CD1a ECD-Avi-His6) (human); experiment: Octet (BLI), 2nd antibody at 100 nM on CD1a captured by OKT6
[2] = target: human single-chain CD1a-β2M recombinant protein (Human B2M-CD1a ECD-Avi-His6) (human); experiment: Octet BLI sandwich: OKT6 coupled to the tip, human CD1a (200 nM) held by it, then Ab673 as second antibody at 100 nM
[3] = target: human single-chain CD1a-β2M recombinant protein (Human B2M-CD1a ECD-Avi-His6) (human); experiment: competition ELISA on coated CD1a against biotinylated Ab40

- binding [1]: binds
- binding [2]: binds
B1: Ab673 (antibody, human IgG1, kappa, V domains shown)
VH: EVQLVESGGGLVQPGGSLRLSCAASGFTFTDHYMHWVRQAPGKGLEWVAHTRDKAGGYTTESNPAVKGRFTISRDNAKNSLYLQMNSLRAEDTAVYYCARETTRIPTGWFAYWGQGTLVTVSS
VL: DIQMTQSPSSLSASVGDRVTITCLASEDIYFDLAWYQQKPGKAPKLLIYGGDRLKEGVPSRFSGSGSGTDYTLTISSLQPEDFATYYCQQSYSYPYTFGQGTKLEIKR

- binding [3]: binds
B2: Ab138 (antibody, human IgG1, kappa, V domains shown)
VH: B1 VH with H32F, H35N, H50F, T51I, D53N, G56N, A65S, R104G
VL: B1 VL with Y30S, F31N, G51A, D52N, E56D, S93K
